Test system: BHK cells
Assay: Stability of Cr(III) accumulated in BHK cells
Type: cell-based, Syrian hamster
Settings: washed; for Chromium level in cells / Chromium level, total (growth medium + cells) / Chromium level in growth medium: 6 h in MEM; for Fraction of the Cr accumulated in the cells that remains firmly bound: 6 h treatment, re-incubated up to 48 h in normal growth medium

| Structure (SMILES) | Chromium level in cells (100 µg/ml, incubation 12 h) | Chromium level, total (growth medium + cells) (100 µg/ml, incubation 12 h) | Chromium level in growth medium (100 µg/ml, incubation 12 h in normal growth medium) | Chromium level in cells (100 µg/ml, incubation 24 h) | Chromium level in growth medium (100 µg/ml, incubation 24 h) | Chromium level, total (growth medium + cells) (100 µg/ml, incubation 24 h) | Chromium level in cells (100 µg/ml, incubation 36 h) | Chromium level in growth medium (100 µg/ml, incubation 36 h) | Chromium level, total (growth medium + cells) (100 µg/ml, incubation 36 h) | Chromium level in cells (100 µg/ml, incubation 48 h) | Chromium level, total (growth medium + cells) (100 µg/ml, incubation 48 h) | Fraction of the Cr accumulated in the cells that remains firmly bound | Chromium level in growth medium (10 µg/ml, incubation 24 h) |
| --- | --- | --- | --- | --- | --- | --- | --- | --- | --- | --- | --- | --- | --- |
| [K+].[K+].[O]=[Cr](=[O])([O-])[O][Cr](=[O])(=[O])[O-] [Potassium dichromate] | 1-4 µg of Cr(III) per 10 pg of DNA | 2-9 µg of Cr(III) per 10 pg of DNA | 1-5 µg of Cr(III) per 10 pg of DNA | 1-6 µg of Cr(III) per 10 pg of DNA | 1-7 µg of Cr(III) per 10 pg of DNA | 3-3 µg of Cr(III) per 10 pg of DNA | 1-6 µg of Cr(III) per 10 pg of DNA | 1-3 µg of Cr(III) per 10 pg of DNA | 2-9 µg of Cr(III) per 10 pg of DNA | 1-5 µg of Cr(III) per 10 pg of DNA | 3-5 µg of Cr(III) per 10 pg of DNA | about 50% |  |
| [Cl][Cr]([Cl])[Cl] [Chromium chloride] |  |  |  |  |  |  |  |  |  |  |  | ~75% | 8-8 µg of Cr(III) per 10 pg of DNA |

From PMC2010749, “Cytotoxic and clastogenic effects of soluble and insoluble compounds containing hexavalent and trivalent chromium” (British Journal of Cancer, 1981)
